Consider one compound from PubChem BioAssay AID996 (National Center for Advancing Translational Sciences (NCATS), 2007).

The target of the assay is Caspase-1 (Homo sapiens) (UniProt P29466). As to the kind of experiment: Concentration-Response Counterscreen for Redox Active Inhibitors of Caspase-1: Summary. The settings on record: caspase-1 enzyme activity, redox counterscreen (DTT/Cys/catalase). From the text:
NIH Molecular Libraries Screening Centers Network [MLSCN]
NIH Chemical Genomics Center [NCGC]
PI Name: Dr. James Wells,
Dr. Enrique Perez-Paya, Dr.Janice Williams, Dr. Dennis Wolan, a person
The caspases (Cysteine Aspartyl Protease) comprise a related family of 14 dimeric proteases that are critical mediators of apoptosis (programmed cell death) and inflammation. The caspases represent an important class of drug targets for stroke, ischemia, cancer and inflammatory diseases. […] One goal of this project was to identify compounds that act as allosteric inhibitors via stabilizing the procaspase form of the enzyme. Previous work in Well's laboratory has shown that such allosteric inhibitors can be identified and these act by binding at the dimer interface of enzyme (Hardy, Lam et al., 2004).
The biochemical assay was configured using purified caspase 1 at a high enzyme concentration to promote formation of the homodimers and thus facilitate the identification of allosteric inhibitors. The overall goal was to identify reversible inhibitors with better drug-like properties than the currently available set of aspartyl-containing peptidomimetics that covalently bind the active site. Caspase 1 was assayed using the profluorescent substrate Ac-WEHD-AFC. After initiation of the assay with substrate the plates were rapidly read using an automated robotic system (Kalypsys, Inc.) to maintain consistent timing. A kinetic mode of detection was used where the initial rate was collected (estimated final product formation was ~10%). Product formation was also measured after 1 hour. […]
Caspase 1 was prepared in buffer (50 mM HEPES pH 7.5, 50 mM KCl, 200 mM NaCl, 0.1% CHAPS and either 10 mM DTT, 10 mM Cys (Aldrich cat# 861677), or 10mM DTT and 50 units/well catalase (from bovine liver, Sigma cat#100)) at a concentration of 66.6 nM and 3 uL was dispensed to all wells using black solid Kalypsys 1536-well plates. […] The plates were then exposed using 405 nm excitation/520 nm emission filters for 4 sec and read at 20 sec intervals for 3 min. […]
Background: A counterscreen serves to expose hits that act by an unwanted route or on another target.

This is one part of the list. Shown are side measurements of this screen, not its main read-out; they come without a call. Potencies come from curve fits of mixed quality, noted in brackets.

By AC50 is commonly meant the midpoint of the concentration-response curve, whichever way the signal moves. High values mean weaker potency, low ones greater potency.

With `COc1cc2c(cc1OC)-c1c(OC)c(OC)c(C=O)c3c1[C@H](C2)N(C)CC3`, the concentration at half-maximal activity (AC50) is 31.6 µM [falling, partial curve] (measured here: DTT 1 h read); 25.1 µM [falling, partial curve] (measured here: DTT rate); 31.6 µM [falling, partial curve] (measured here: cysteine rate).
